The test addresses GFP-myc-tagged ESB2 (T. brucei) (UniProt Q4GZ37). Description: co-IP; lysate of bloodstream-form T. brucei (20 mM HEPES pH 7.4, 1 mM MgCl2, 10 uM CaCl2, 250 mM sodium citrate, 0.1% Tween-20), sonicated, micrococcal nuclease; GFP-Trap magnetic agarose beads or anti-GFP Dynabeads, 4 C for 2 h; 10 washes in lysis buffer and one in RIPA; anti-HA blot for the prey; single tagged 6HA-ESB3 line as negative control.

The chains behind the UniProt entries cited, without tags or fusion partners. Where a name states a change or a piece, a line headed by the entry shows the natural chain unless it says otherwise.
UniProt Q4GZ37: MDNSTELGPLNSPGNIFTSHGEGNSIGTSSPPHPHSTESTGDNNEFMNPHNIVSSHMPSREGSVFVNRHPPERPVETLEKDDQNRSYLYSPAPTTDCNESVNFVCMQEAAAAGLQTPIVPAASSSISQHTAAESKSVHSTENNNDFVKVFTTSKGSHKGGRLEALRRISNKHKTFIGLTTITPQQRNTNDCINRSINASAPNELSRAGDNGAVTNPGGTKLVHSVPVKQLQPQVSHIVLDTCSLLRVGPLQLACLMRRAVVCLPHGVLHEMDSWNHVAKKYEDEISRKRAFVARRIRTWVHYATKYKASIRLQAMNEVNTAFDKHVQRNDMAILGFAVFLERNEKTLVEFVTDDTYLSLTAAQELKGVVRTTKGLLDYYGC
UniProt Q4FKV6: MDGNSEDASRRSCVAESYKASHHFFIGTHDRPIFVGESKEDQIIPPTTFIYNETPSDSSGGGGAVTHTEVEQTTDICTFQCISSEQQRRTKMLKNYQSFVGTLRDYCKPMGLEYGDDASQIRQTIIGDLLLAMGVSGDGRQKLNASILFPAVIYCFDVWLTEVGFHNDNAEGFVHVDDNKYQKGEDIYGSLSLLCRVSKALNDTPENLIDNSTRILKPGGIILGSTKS

One substance from paper PMC13056571 can be followed below.

No constants are given. Whether binding was seen depends on the method and setting. In cells and extracts the contact can be indirect. Binding calls can cover weak binding; strength is not graded here.

With 6xHA-tagged ESB3 (from UniProt Q4FKV6), the binding result is “binds”.
